This is an account of results in paper PMC11968270.

The chains behind the UniProt entries cited, without tags or fusion partners. Where a name states a change or a piece, a line headed by the entry shows the natural chain unless it says otherwise.
UniProt A0A3Q7I3M4: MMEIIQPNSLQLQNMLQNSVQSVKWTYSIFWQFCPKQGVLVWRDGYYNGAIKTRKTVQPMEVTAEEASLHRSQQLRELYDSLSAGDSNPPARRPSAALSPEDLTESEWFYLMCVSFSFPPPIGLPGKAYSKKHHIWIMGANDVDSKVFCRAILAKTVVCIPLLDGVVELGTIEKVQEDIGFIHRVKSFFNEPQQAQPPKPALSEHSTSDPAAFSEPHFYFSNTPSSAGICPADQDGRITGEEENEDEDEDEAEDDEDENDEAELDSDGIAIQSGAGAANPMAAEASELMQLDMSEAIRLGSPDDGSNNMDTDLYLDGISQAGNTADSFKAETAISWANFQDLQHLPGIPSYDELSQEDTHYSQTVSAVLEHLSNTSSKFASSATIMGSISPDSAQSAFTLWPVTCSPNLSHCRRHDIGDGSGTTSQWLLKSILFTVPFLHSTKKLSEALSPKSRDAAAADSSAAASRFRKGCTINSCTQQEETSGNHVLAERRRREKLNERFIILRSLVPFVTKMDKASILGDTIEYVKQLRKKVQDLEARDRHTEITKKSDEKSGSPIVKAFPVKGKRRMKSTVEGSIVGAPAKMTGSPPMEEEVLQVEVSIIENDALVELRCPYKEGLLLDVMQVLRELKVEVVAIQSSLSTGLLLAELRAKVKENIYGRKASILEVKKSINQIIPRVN

This assay has as its target GST-SlTTG1 (tomato (Solanum lycopersicum)). Briefly: pull-down; purified His-tagged and GST-tagged proteins (or GST) mixed equally, incubated with GST agarose at 4 °C for 2 h, washed at least 10 times with PBS; immunoblot with anti-GST and anti-His; both purified. (In general: Immunoblotting shows a protein as a band on a membrane.)

No constants are given. Whether binding was seen depends on the method and setting. A result given as binding can be weak or reduced; the word gives no strength.

As to His-SlbHLH150 (from UniProt A0A3Q7I3M4), the binding result was “binds”.
